The nature of series [1]: Short-term storage stability of emulsions (drug conc., pH, particle size). It counts as physicochemical. The note with it: emulsion, DEA 0.30%, 12 weeks. The source says:
This Example illustrates the effect of the storage temperature on short-term stability of the formulations of the invention as measured by pH and the size of the droplets. The results of short term stability of cinacalcet at different temperatures and varying TRIS buffer concentrations are presented in Table 8. Cinacalcet was stable in the emulsion formulation over 12 weeks. The pH of the emulsion is lower over time for both placebo and cinacalcet emulsions. The drop in pH is less at lower storage temperature and higher TRIS concentration.
The results of short-term stability of cinacalcet at different temperatures and varying DEA buffer concentrations are presented in Table 9. Cinacalcet was stable in the emulsion formulation over 12 weeks. pH of the emulsion is lower over time for both placebo and cinacalcet emulsion. The drop in pH is less at lower storage temperature and higher DEA concentration.

The nature of series [2]: Effect of pH and buffer type on emulsion stability (pH, particle size before/after one autoclave cycle). As to conditions: after one autoclave cycle, TRIS 5 mM, 2% egg lecithin. The series is classed as physicochemical. Here is the method:
Tables 6 summarizes the effect of pH and the buffer type on emulsion stability as measured by the particle size. Emulsions were made using 2% egg lecithin, 2.25% glycerin in water for injection. Particle size and pH were measured after one-autoclave cycle. For all emulsions, particle size before autoclaving as represented by D(4,3) was in a range of 0.30 to 0.45 μm. Emulsions were stable at high pH using TRIS and DEA buffer, and at low pH using phosphate buffer over varying concentrations of cinacalcet and soybean oil. Closer to pH 7 using phosphate buffer, increase in particle size was seen after autoclaving.
Particle size data is reported as D(4,3) before and after one autoclaving cycle.

Consider 1 compound from patent US8779004B2, “Stable emulsion formulations” (Amgen, Inc., priority 2006, dated 2014).

Each structure is given as a SMILES string. The source gives many values for each of these; only a part stands here.

On to `C[C@@H](NCCCc1cccc(C(F)(F)F)c1)c1cccc2ccccc12` [Cinacalcet, N-(1-(R)-(1-naphthyl)ethyl]-3-[3-(trifluoromethyl)phenyl]-1-aminopropane], for which the pH in series [1] (5° C.) came to 9.08; in series [1] (40° C.), 8.81. The “D(4, 3)” value is given as 0.31 μm in series [2] (target cinacalcet 5 mg/mL, SBO conc. 5) and 0.39 μm in series [2] (target cinacalcet 10 mg/mL, SBO conc. 10).
